Amino acid sequences for entries named in this document (tags omitted). A change or cut given only in a name is not applied to a line headed by its entry.
UniProt O23320: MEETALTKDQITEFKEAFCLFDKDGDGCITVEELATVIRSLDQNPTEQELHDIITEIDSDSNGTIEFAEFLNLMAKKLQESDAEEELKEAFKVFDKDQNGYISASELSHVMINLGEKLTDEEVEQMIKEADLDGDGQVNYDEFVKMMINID
UniProt Q9ZU46: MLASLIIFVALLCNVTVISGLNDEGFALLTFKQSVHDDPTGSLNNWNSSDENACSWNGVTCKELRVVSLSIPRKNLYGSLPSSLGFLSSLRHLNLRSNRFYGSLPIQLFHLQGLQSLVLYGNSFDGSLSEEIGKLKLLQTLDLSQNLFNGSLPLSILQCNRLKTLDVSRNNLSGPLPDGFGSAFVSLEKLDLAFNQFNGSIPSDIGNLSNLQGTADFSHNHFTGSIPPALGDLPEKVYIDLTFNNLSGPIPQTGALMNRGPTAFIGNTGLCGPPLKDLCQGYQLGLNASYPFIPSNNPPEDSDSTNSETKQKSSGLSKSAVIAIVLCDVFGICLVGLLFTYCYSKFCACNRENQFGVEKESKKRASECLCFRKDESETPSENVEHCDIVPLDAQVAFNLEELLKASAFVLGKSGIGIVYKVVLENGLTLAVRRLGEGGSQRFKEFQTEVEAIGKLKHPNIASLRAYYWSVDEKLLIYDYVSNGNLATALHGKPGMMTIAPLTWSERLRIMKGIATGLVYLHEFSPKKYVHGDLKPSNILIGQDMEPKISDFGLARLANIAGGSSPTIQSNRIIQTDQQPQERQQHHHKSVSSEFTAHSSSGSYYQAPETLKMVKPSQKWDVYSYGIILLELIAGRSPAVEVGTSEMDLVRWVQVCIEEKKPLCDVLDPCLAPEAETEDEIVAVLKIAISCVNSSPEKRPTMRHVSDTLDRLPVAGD

In PMC4807781:

Experiments:
MBP-AGB1 (Arabidopsis) [1] = target: T1, MBP-AGB1 (Arabidopsis) (UniProt P49177); assay: pull-down; MBP-AGB1 as bait with His-kinase or its variants; proteins expressed in E. coli; Western detection
T1 sequence: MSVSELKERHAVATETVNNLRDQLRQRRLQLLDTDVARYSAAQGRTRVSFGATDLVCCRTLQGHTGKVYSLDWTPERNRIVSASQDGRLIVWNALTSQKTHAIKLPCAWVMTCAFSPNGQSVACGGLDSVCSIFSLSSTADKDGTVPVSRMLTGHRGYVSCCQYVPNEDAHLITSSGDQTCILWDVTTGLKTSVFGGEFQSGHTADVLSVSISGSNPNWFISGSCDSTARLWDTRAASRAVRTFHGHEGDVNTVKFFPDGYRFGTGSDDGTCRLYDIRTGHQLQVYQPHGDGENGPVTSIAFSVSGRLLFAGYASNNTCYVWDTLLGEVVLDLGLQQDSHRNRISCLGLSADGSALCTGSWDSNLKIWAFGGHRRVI

GST-CaM8 (Arabidopsis) = GST-CaM8 (Arabidopsis) (UniProt O23320); assay: pull-down; GST-tagged bait (CaM1, CaM8, SSP) on glutathione agarose with His-kinase or its variants; E. coli supernatants, 4°C overnight; 25 mmol/L Tris pH 7.5, 50 mmol/L NaCl, 3 mmol/L DTT; washes with 1% Triton X-100, 0.1% SDS; Western detection; calcium 2 to 10 μmol/L tested for CaM1 (S7 Fig)
[2] = target: T2, GST-tagged SSP protein (Arabidopsis) (UniProt Q7XJT7); assay: as above
T2 sequence: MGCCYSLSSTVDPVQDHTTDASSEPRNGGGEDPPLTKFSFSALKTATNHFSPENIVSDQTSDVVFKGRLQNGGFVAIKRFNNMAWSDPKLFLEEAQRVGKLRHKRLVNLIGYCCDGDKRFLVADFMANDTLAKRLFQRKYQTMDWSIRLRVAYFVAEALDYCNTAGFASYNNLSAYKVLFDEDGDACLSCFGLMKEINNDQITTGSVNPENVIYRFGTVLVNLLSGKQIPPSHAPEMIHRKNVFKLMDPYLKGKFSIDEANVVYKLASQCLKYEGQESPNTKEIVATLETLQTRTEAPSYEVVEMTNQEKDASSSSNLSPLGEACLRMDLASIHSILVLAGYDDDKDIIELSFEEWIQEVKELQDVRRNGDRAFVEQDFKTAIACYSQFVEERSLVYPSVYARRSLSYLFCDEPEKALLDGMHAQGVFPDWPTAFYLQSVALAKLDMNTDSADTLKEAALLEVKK

MBP-AGB1 (Arabidopsis) [3] = target: T1, MBP-AGB1 (Arabidopsis); assay: pull-down; His-tagged ZAR1 intracellular domain co-incubated with GST-CaM1 and MBP-AGB1 together; pulled down by GST-CaM1 or by MBP-AGB1
AGB1-nYFP (Arabidopsis) = target: T3, AGB1-nYFP (Arabidopsis) (UniProt P49177); assay: split reporter; BiFC (cYFP and nYFP fusions, 35S promoter) in Arabidopsis leaf protoplasts, confocal microscopy
T3 sequence: T1 sequence

[4] = target: FLAG-ZAR1^ΔGβBS (Arabidopsis) (UniProt Q9ZU46); assay: co-IP; FLAG-tagged ZAR1 or variants co-expressed with HA-tagged AGB1 in Arabidopsis leaf protoplasts; membrane fraction in 1% Triton X-100; anti-FLAG-M2 gel, 4°C, 1 hr; Western blot

**Q.** With “His-tagged ZAR1 kinase domain (from UniProt Q9ZU46) (domain or fragment)” as the molecule, how does the binding (MBP-AGB1 (Arabidopsis) [1]) read?
**A.** Its binding is “binds”.

**Q.** And the binding (GST-CaM8 (Arabidopsis))?
**A.** The binding was “binds”.

**Q.** And the binding [2]?
**A.** Its binding is “binds”.

**Q.** What about the binding (MBP-AGB1 (Arabidopsis) [3]) of the same molecule?
**A.** The binding was “binds”.

**Q.** For “His-kinase^ΔGβBS (from UniProt Q9ZU46) (domain or fragment)”, which binding (MBP-AGB1 (Arabidopsis) [1]) is on record?
**A.** The binding was “no binding”.

**Q.** How did the binding (GST-CaM8 (Arabidopsis)) turn out when “His-kinase^ΔCaMBD (from UniProt Q9ZU46) (domain or fragment)” was run?
**A.** Its binding is “no binding”.

**Q.** “ZAR1^ΔGβBS-cYFP (from UniProt Q9ZU46) (receptor)” was tested. Which binding (AGB1-nYFP (Arabidopsis)) did it give?
**A.** The binding was “no binding”.

B1: HA-AGB1 (protein, UniProt P49177 1-377)
chain: T1 sequence
**Q.** With B1 as the molecule, how does the binding [4] read?
**A.** The binding was “no binding”.

These are yes or no findings as the source states them, for the method shown. In cells and extracts the contact can be indirect. For some assays here: Binding can be weak; no strength is given. For some assays here: Where a sequence is shown, tags or fusion partners need not be part of it.
